Test results taken from US8889902B2, “Acetylsalicylic acid salts” (priority 2009, dated 2014).

Test system: rat ear skin temperature
Assay: Ear skin temperature rise caused by NA, p.o. administration
Assay type: in vivo, Wistar rats
Procedure: Male Wistar rats (280-330 g) were used. Animals were held in groups of 6 in climatized rooms at 22±1° C., relative humidity 60±5%, and 12/12-hour light/dark cycle with free access to drinking water and feed (R3—Lactamin AB, Sweden). For registration of changes in skin temperature of intact rats contactless temperature recording method was used (Papaliodis D et al, Br J Pharmacol 2008; 153:1382-1387). Temperature measurements were performed with a hand-held infrared thermometer (Model Proscan 510, TFA-Dostman). Animals were habituated to handling and to the infrared probe for 3 days before use. Temperature readings from the dorsal side of each ear were recorded without anaesthesia at beginning and during experiment. The ear temperature was measured every 5 min. for a period of up to 60 min. The animals were returned to their cages between measurements. NA, MD and MASA were dissolved in saline and pH was corrected immediately before usage. LA (MK 0524, Cayman Chemicals) was first dissolved in DMSO and then freshly diluted with 0.9% NaCl, on each day of the experiment. The rate of NA and LA combination was based on Summary of Product Characteristics for Tredaptive™ (nicotinic acid/laropiprant) 1000 mg/20 mg modified-release tablets.
9.2.3. Investigation of the Effect of MASA/NA and MD/NA Combination on Skin Temperature at Simultaneous or 45 Min Advance p.o. Administration

CC(=O)Oc1ccccc1C(=O)[O-].C[N+](C)(C)NCCC(=O)O [MASA, 3-(trimethylammonioamino)propanoate Acetylsalicylic Acid Addition Salt]
Initial temp. (MASA 150 mg/kg p.o. alone): 29.7 ± 0.28 °C

C[N+](C)(C)NCCC(=O)[O-].O.O [MD, 3-(Trimethylammonioamino)propanoate dihydrate]
Initial temp. (MD 100 mg/kg p.o. alone): 29.9 ± 0.35 °C

O=C(O)c1cccnc1 [NA, nicotinic acid]
Initial temp. (NA 40 mg/kg p.o.): 30.0 ± 0.41 °C
